In ChEMBL document CHEMBL4316593 (Eur J Med Chem, 2019):
This continues a long series; more values of the same kind are listed elsewhere.

Experiments:
Assay type in all cases: cell-based
Settings in all cases: U-87MG ATCC
[1] = Inhibition of RTK/PI3K/AKT/mTOR signaling in human U87 cells assessed as up regulation of BRSK1 gene expression at cytotoxic IC50 measured after 48 hrs relative to control
[2] = Inhibition of RTK/PI3K/AKT/mTOR signaling in human U87 cells assessed as up regulation of KIAA1671 gene expression at cytotoxic IC50 measured after 48 hrs relative to control
[3] = Inhibition of RTK/PI3K/AKT/mTOR signaling in human U87 cells assessed as down regulation of FMR1 gene expression at cytotoxic IC50 measured after 48 hrs relative to control
[4] = Inhibition of RTK/PI3K/AKT/mTOR signaling in human U87 cells assessed as down regulation of TAB3 gene expression at cytotoxic IC50 measured after 48 hrs relative to control
[5] = Inhibition of RTK/PI3K/AKT/mTOR signaling in human U87 cells assessed as up regulation of PFKM gene expression at cytotoxic IC50 measured after 48 hrs relative to control
[6] = Inhibition of RTK/PI3K/AKT/mTOR signaling in human U87 cells assessed as up regulation of spire type actin nucleation factor 2 gene expression at cytotoxic IC50 measured after 48 hrs relative to control
[7] = Inhibition of RTK/PI3K/AKT/mTOR signaling in human U87 cells assessed as up regulation of PROM1 gene expression at cytotoxic IC50 measured after 48 hrs relative to control
[8] = Inhibition of RTK/PI3K/AKT/mTOR signaling in human U87 cells assessed as down regulation of ELOVL5 gene expression at cytotoxic IC50 measured after 48 hrs relative to control
[9] = Inhibition of RTK/PI3K/AKT/mTOR signaling in human U87 cells assessed as up regulation of GLI1 gene expression at cytotoxic IC50 measured after 48 hrs relative to control
[10] = Inhibition of RTK/PI3K/AKT/mTOR signaling in human U87 cells assessed as up regulation of myelin regulatory factor gene expression at cytotoxic IC50 measured after 48 hrs relative to control
[11] = Inhibition of RTK/PI3K/AKT/mTOR signaling in human U87 cells assessed as up regulation of aldehyde dehydrogenase 1 family member A3 gene expression at cytotoxic IC50 measured after 48 hrs relative to control
[12] = Inhibition of RTK/PI3K/AKT/mTOR signaling in human U87 cells assessed as down regulation of C2orf42 gene expression at cytotoxic IC50 measured after 48 hrs relative to control
[13] = Inhibition of RTK/PI3K/AKT/mTOR signaling in human U87 cells assessed as down regulation of GOLGA7 gene expression at cytotoxic IC50 measured after 48 hrs relative to control
[14] = Inhibition of RTK/PI3K/AKT/mTOR signaling in human U87 cells assessed as down regulation of CREBBP gene expression at cytotoxic IC50 measured after 48 hrs relative to control
[15] = Inhibition of RTK/PI3K/AKT/mTOR signaling in human U87 cells assessed as down regulation of ARL8B gene expression at cytotoxic IC50 measured after 48 hrs relative to control
[16] = Inhibition of RTK/PI3K/AKT/mTOR signaling in human U87 cells assessed as down regulation of NF1 gene expression at cytotoxic IC50 measured after 48 hrs relative to control
[17] = Inhibition of RTK/PI3K/AKT/mTOR signaling in human U87 cells assessed as down regulation of AZIN1 gene expression at cytotoxic IC50 measured after 48 hrs relative to control
[18] = Inhibition of RTK/PI3K/AKT/mTOR signaling in human U87 cells assessed as up regulation of EZR gene expression at cytotoxic IC50 measured after 48 hrs relative to control
[19] = Inhibition of RTK/PI3K/AKT/mTOR signaling in human U87 cells assessed as up regulation of THAP domain containing 11 gene expression at cytotoxic IC50 measured after 48 hrs relative to control
[20] = Inhibition of RTK/PI3K/AKT/mTOR signaling in human U87 cells assessed as up regulation of EFNA3 gene expression at cytotoxic IC50 measured after 48 hrs relative to control
[21] = Inhibition of RTK/PI3K/AKT/mTOR signaling in human U87 cells assessed as up regulation of calcium homeostasis modulator 2 gene expression at cytotoxic IC50 measured after 48 hrs relative to control
[22] = Inhibition of RTK/PI3K/AKT/mTOR signaling in human U87 cells assessed as down regulation of ITGA2 gene expression at cytotoxic IC50 measured after 48 hrs relative to control
[23] = Inhibition of RTK/PI3K/AKT/mTOR signaling in human U87 cells assessed as up regulation of TNFAIP8L1 gene expression at cytotoxic IC50 measured after 48 hrs relative to control
[24] = Inhibition of RTK/PI3K/AKT/mTOR signaling in human U87 cells assessed as up regulation of deleted in primary ciliary dyskinesia homolog (mouse) gene expression at cytotoxic IC50 measured after 48 hrs relative to control
[25] = Inhibition of RTK/PI3K/AKT/mTOR signaling in human U87 cells assessed as down regulation of CNEP1R1 gene expression at cytotoxic IC50 measured after 48 hrs relative to control
[26] = Inhibition of RTK/PI3K/AKT/mTOR signaling in human U87 cells assessed as down regulation of TMEM14B gene expression at cytotoxic IC50 measured after 48 hrs relative to control
[27] = Inhibition of RTK/PI3K/AKT/mTOR signaling in human U87 cells assessed as down regulation of CHGA gene expression at cytotoxic IC50 measured after 48 hrs relative to control
[28] = Inhibition of RTK/PI3K/AKT/mTOR signaling in human U87 cells assessed as up regulation of PPL gene expression at cytotoxic IC50 measured after 48 hrs relative to control
[29] = Inhibition of RTK/PI3K/AKT/mTOR signaling in human U87 cells assessed as down regulation of C18orf25 gene expression at cytotoxic IC50 measured after 48 hrs relative to control
[30] = Inhibition of RTK/PI3K/AKT/mTOR signaling in human U87 cells assessed as up regulation of collagen type XVIII alpha 1 chain gene expression at cytotoxic IC50 measured after 48 hrs relative to control
[31] = Inhibition of RTK/PI3K/AKT/mTOR signaling in human U87 cells assessed as up regulation of CD44 molecule (Indian blood group) gene expression at cytotoxic IC50 measured after 48 hrs relative to control
[32] = Inhibition of RTK/PI3K/AKT/mTOR signaling in human U87 cells assessed as down regulation of RANBP10 gene expression at cytotoxic IC50 measured after 48 hrs relative to control

CC(=O)C(=NNc1ccccc1C#N)C(C)=O
log2FC [1]: 1.81
log2FC [2]: 0.763
log2FC [3]: -0.751
log2FC [4]: -1.08
log2FC [5]: 0.609
log2FC [6]: 0.784
log2FC [7]: 2.38
log2FC [8]: -0.454
log2FC [9]: 2.92
log2FC [10]: 0.876
log2FC [11]: 1.08
log2FC [12]: -1.04
log2FC [13]: -0.63
log2FC [14]: -0.864
log2FC [15]: -0.572
log2FC [16]: -0.815
log2FC [17]: -0.705
log2FC [18]: 1.66
log2FC [19]: 1
log2FC [20]: 1.7
log2FC [21]: 1.51
log2FC [22]: -1.34
log2FC [23]: 1.62
log2FC [24]: 1.07
log2FC [25]: -0.833
log2FC [26]: -0.686
log2FC [27]: -6.54
log2FC [28]: 0.415
log2FC [29]: -0.58
log2FC [30]: 0.777
log2FC [31]: 0.887
log2FC [32]: -0.838
